The text below walks through data of paper PMC6320914 (Pharmaceutics, 2018).

A short description of the series: general procedure: Fmoc solid-phase peptide synthesis; Rink-Amide MBHA resin (0.73 mmol/g) or Fmoc-Ethyl-Indole AM resin (0.94 mmol/g); DIC/HOBt. To be noted: whole synthesis, 220 nm.

[^4Lys(Bu), ^10ΔGly-NHEt]: the “final HPLC purity” value is at least 97%.

Consider [^2ΔHis, ^3D-Tic], for which the “final HPLC purity” value is on record as at least 95%.

In the case of [^3D-Tic, ^7D-Trp], the “final HPLC purity” value was above 97%.

On to [^3D-Tic, ^4Lys(Bu), ^7D-Trp], for which the “final HPLC purity” value was at least 96%.

[^2ΔHis, ^3D-Tic, ^7D-Trp]: the “final HPLC purity” value is recorded as at least 95%.

In the case of [^2ΔHis, ^3D-Tic, ^4Lys(Bu)], the “final HPLC purity” value is given as at least 96%.

As for [^3D-Trp, ^4Lys(Bu)], the “final HPLC purity” value is recorded as at least 98%.

For the substance [^3D-Tic, ^4Lys(Bu)], the “final HPLC purity” value was at least 97%.

For [^2ΔHis, ^3D-Tic, ^4Lys(Bu), ^7D-Trp], the “final HPLC purity” value is listed as at least 98%.

Consider [^4Lys(Bu), ^6Asp(OMe)], for which the “final HPLC purity” value is reported as at least 98%.

Take [^10ΔGly-NHEt]: the “final HPLC purity” value is at least 97%.
